Values joined by “and” are separate entries in the source; they are usually repeats but may differ in a detail not shown here. Equal entries are not always repeated. About 22,000 (6.9%) of roughly 320,000 compounds were called active. The inconclusive results got no clear call from the source; some entries with a clear call stand among them for comparison. Calls come from the whole dose curve; as a rule, active = well fitted inhibition curve with a large enough effect; inconclusive = small, poorly fitted or top-dose-only effect, or another doubt; inactive = no such curve, though single readings can be large or run the other way. Potencies beside an inconclusive call are fits to weak or partial responses and may not hold up.
Experiment: Primary qHTS for delayed death inhibitors of the malarial parasite plastid, 96 hour incubation
Conditions: P. falciparum luciferase reporter growth; series mostly up to 28.7 µM
In short: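 Readout is luminescence from an integrated firefly luciferase in P. falciparum. Red cells, 2% hematocrit and 0.05% parasitemia final, were cultured with compound through two parasite generations (96 hours) at 37 C, 5% CO2.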
Potency is the fitted concentration of half-maximal effect.

Compound | Potency
Cc1[nH]nc2nc(SCC(=O)NC3CCCCC3)n(-c3ccc(Br)cc3)c(=N)c12 | active: 13.1 µM
Cc1sc(NC(=O)c2sc3nc4c(C)cccc4cc3c2N)c(C#N)c1C | inconclusive: 11.7 µM [inhibitor, partial curve, poor fit]
O=S(=O)(c1ccccc1)N1CCN=C1SCc1ccc(Cl)c(Cl)c1 | inconclusive: 14.7 µM [inhibitor, partial curve, poor fit]
C[C@@H](C(=O)NCc1ccccc1)[C@@H]1C[C@@]1(C)[C@@H](NC(=O)OCc1ccccc1)c1ccccc1 | inconclusive: 16.5 µM [inhibitor, partial curve]
O=S(=O)(Cc1cc(Sc2ccc(Cl)cc2)nc(-c2ccccc2)n1)c1ccccc1 | inconclusive: 18.5 µM [inhibitor, single point]
CC(C)CCNC1c2ccccc2C(=O)N1Cc1ccccc1 (configuration not stated) | inconclusive: 16.5 µM [inhibitor, single point]
CCOC(=O)C1CCN(C(=O)/C(=C/c2ccccc2)NC(=O)c2ccccc2)CC1 | inconclusive: 2.08 µM [inhibitor, full curve, poor fit]
CC(C)Cn1c(Br)nc2c1c(=O)n(CCC#N)c(=O)n2C | inconclusive: 18.5 µM [inhibitor, single point]
Nc1nc(N)c2nc(CNc3ccc(C(=O)NC(CCC(=O)O)C(=O)O)cc3)cnc2n1 (configuration not stated) | inactive and inconclusive: 165 nM [inhibitor, full curve, poor fit]
Cc1ccc(S(=O)(=O)n2ccc3c(OCCOCCSCC(NC(=O)OC(C)(C)C)C(=O)O)cccc32)cc1 (configuration not stated) | active: 9.28 µM
CCOC(=O)C1CCCN(CC(=O)NC2=Nc3ccccc3N=C(C)C2c2ccccc2)C1 (configuration not stated) | inconclusive: 18.5 µM [inhibitor, single point]
CCc1nc(N2CCN(C(C)=O)CC2)c2c3c(sc2n1)CCCC3 | inactive
COC(=O)Cn1ccc2cc(S(=O)(=O)N3CCCCC3)ccc21 | active: 5.86 µM
CCCCC(=O)N(c1ccc(C(=O)O)cc1)c1nc(-c2ccc(Cl)cc2)c(CC)s1 | inconclusive: 11.7 µM [inhibitor, single point]
COCCCNC(=S)N(CCN(C)C)Cc1cc2cc3c(cc2[nH]c1=O)OCCO3 | inconclusive: 18.5 µM [inhibitor, single point]
COc1ccc(-n2c(=S)[nH]c3cc(C(=O)NCc4ccco4)ccc3c2=O)c(OC)c1 | inconclusive: 11.7 µM [inhibitor, single point]

A draw from above in order of molecular weight, low to high.
Compound | Potency
COC(=O)Cn1ccc2cc(S(=O)(=O)N3CCCCC3)ccc21 | active: 5.86 µM
CCOC(=O)C1CCN(C(=O)/C(=C/c2ccccc2)NC(=O)c2ccccc2)CC1 | inconclusive: 2.08 µM [inhibitor, full curve, poor fit]
C[C@@H](C(=O)NCc1ccccc1)[C@@H]1C[C@@]1(C)[C@@H](NC(=O)OCc1ccccc1)c1ccccc1 | inconclusive: 16.5 µM [inhibitor, partial curve]

Reference: PubChem BioAssay AID504834 (National Center for Advancing Translational Sciences (NCATS), 2011)
